Values of other authors as cited in article PMC3445653 (Neuropharmacology, 2012).

Experiments:
Conditions in all cases: ref Komander et al., 2003; Ling et al., 2002; cited from earlier work
[1] = tested on: Ca^2+/calmodulin-dependent protein kinase II (CaMKII)
[2] = tested on: cAMP-dependent protein kinase (PKA)
PDK1 = tested on: PDK1

CN[C@@H]1C[C@H]2O[C@@](C)([C@@H]1OC)n1c3ccccc3c3c4c(c5c6ccccc6n2c5c31)C(=O)NC4 [staurosporine]
low nanomolar concentrations: inhibition of CaMKII [1] | inhibition of PKA [2] | inhibition of PDK1 (PDK1)
